Results from article PMC5661634.

Sequences of proteins named here, by UniProt entry; tags and fusion partners are left off.
UniProt Q13596: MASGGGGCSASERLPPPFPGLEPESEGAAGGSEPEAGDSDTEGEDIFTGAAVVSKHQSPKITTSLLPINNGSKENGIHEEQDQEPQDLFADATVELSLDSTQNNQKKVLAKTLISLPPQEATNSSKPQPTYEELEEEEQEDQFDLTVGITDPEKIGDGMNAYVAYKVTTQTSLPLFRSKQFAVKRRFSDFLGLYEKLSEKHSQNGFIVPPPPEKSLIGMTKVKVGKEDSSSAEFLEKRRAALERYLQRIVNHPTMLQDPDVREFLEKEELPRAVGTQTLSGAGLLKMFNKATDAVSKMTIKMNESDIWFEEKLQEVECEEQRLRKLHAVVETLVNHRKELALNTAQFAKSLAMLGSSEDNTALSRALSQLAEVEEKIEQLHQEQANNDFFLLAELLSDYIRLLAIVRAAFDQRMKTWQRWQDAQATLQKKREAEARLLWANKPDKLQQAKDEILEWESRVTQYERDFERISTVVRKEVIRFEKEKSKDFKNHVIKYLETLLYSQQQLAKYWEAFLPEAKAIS

Columns and labels:
[1] = target: T1, GFP-SNX6 (full-length SNX6) (UniProt Q9UNH7); assay: co-IP; GFP-SNX6 from transfected HEK293T lysate (50 mM Tris-HCl, 150 mM NaCl, 1 mM EDTA, 0.5% NP-40) held with anti-GFP antibody and protein A/G beads; purified GST-IncE proteins added, overnight; immunoblot; only the binder purified
T1 sequence: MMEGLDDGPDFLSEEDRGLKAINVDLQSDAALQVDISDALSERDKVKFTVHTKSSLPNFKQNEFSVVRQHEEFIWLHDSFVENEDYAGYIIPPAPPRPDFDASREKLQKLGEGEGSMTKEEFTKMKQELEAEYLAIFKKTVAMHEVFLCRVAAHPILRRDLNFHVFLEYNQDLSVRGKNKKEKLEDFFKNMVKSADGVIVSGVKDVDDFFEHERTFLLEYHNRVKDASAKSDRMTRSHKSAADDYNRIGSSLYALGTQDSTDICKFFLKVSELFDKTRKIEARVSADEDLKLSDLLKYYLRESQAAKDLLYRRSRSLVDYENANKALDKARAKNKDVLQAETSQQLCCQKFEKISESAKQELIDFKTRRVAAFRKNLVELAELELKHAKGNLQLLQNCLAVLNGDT

Flag-YFP-SNX6 Δ124–148 = Flag-YFP-SNX6 Δ124–148 (UniProt Q9UNH7); assay: co-IP; HEK293T transfected with Flag-YFP-SNX6 constructs; p100 fractions immunopurified with anti-Flag antibody; blotted with anti-SNX1 and anti-Flag
[2] = target: GST-IncE^109–132 WT (Chlamydia trachomatis); assay: pull-down; GST pull-down: GST-IncE on beads, excess of soluble purified partner, 1 h at 4 °C; washed with 20 mM Tris pH 8.0, 200 mM NaCl, 0.005% Triton-X100, 2 mM DTT; SDS-PAGE, Coomassie; both purified
[3] = target: MBP-IncE^109–132 (Chlamydia trachomatis); assay: pull-down; MBP pull-down: MBP-IncE 109-132 on beads, GST-PX5 WT or mutants soluble; 1 h at 4 °C; samples cut with TEV before SDS-PAGE; Coomassie; both purified
[4] = target: GST-IncE^109–132 F116A (Chlamydia trachomatis); assay: pull-down; GST pull-down: GST-IncE on beads, excess of soluble purified partner, 1 h at 4 °C; washed with 20 mM Tris pH 8.0, 200 mM NaCl, 0.005% Triton-X100, 2 mM DTT; SDS-PAGE, Coomassie; both purified
[5] = target: GST-IncE^109–132 Q115A (Chlamydia trachomatis); assay: as above
[6] = target: GST-IncE^109–132 F117A (Chlamydia trachomatis); assay: as above
[7] = target: GST-IncE^109–132 V114A (Chlamydia trachomatis); assay: as above
[8] = target: GST-IncE^109–132 V127A (Chlamydia trachomatis); assay: as above
[9] = target: GST-IncE^109–132 K118A (Chlamydia trachomatis); assay: as above

GST-IncE^109–132 WT (Chlamydia trachomatis) (domain or fragment)
binding [1]: binds

GST-IncE^109–132 F116A (Chlamydia trachomatis) (domain or fragment)
binding [1]: no binding

GST-IncE^109–132 V114A (Chlamydia trachomatis) (domain or fragment)
binding [1]: binds

SNX1 (endogenous) (from UniProt Q13596 1-522)
binding (Flag-YFP-SNX6 Δ124–148): binds

B1: PX5 Δ102–131 (domain or fragment, UniProt Q9D8U8)
chain: SVSVDLNVDPSLQIDIPDALSERDKVKFTVHTKTTLSTFQSPEFSVTRQHEDFVWLHDTLTETTDYAGLIIPPAPTKPDFDGYLAVFKKTVSTHEVFLQRLSSHPVLSKDRNFHVFLEYDQDLSVRRKNTK
binding [2]: no binding

B2: GST-PX5 WT (domain or fragment, UniProt Q9D8U8 20-180)
chain: SVSVDLNVDPSLQIDIPDALSERDKVKFTVHTKTTLSTFQSPEFSVTRQHEDFVWLHDTLTETTDYAGLIIPPAPTKPDFDGPREKMQKLGEGEGSMTKEEFAKMKQELEAEYLAVFKKTVSTHEVFLQRLSSHPVLSKDRNFHVFLEYDQDLSVRRKNTK
binding [3]: binds

B3: mouse SNX5 PX domain (residues 20–180) (domain or fragment, UniProt Q9D8U8 20-180)
chain: B2 chain
binding [2]: binds | binding [4]: no binding | binding [5]: binds | binding [6]: binds | binding [7]: no binding | binding [8]: binds | binding [9]: binds

B4: GST-PX5 F136A (domain or fragment, UniProt Q9D8U8 20-180)
chain: B2 chain with F117A
binding [3]: no binding

B5: GST-PX5 E129A (domain or fragment, UniProt Q9D8U8 20-180)
chain: B2 chain with E110A
binding [3]: binds

B6: GST-PX5 L133A (domain or fragment, UniProt Q9D8U8 20-180)
chain: B2 chain with L114A
binding [3]: no binding

B7: GST-PX5 Y132A (domain or fragment, UniProt Q9D8U8 20-180)
chain: B2 chain with Y113A
binding [3]: no binding

B8: GST-PX5 E144A (domain or fragment, UniProt Q9D8U8 20-180)
chain: B2 chain with E125A
binding [3]: binds

Substitutions are numbered along the chain they refer to. Names and notes keep the numbering of the source. No constants are given. Whether binding was seen depends on the method and setting. For part of these data: Binding calls can cover weak binding; strength is not graded here. For part of these data: Where a sequence is shown, tags or fusion partners need not be part of it. For part of these data: In cells and extracts the contact can be indirect.
